Paper PMC7819943, “Rice protein-binding microarrays: a tool to detect cis-acting elements near promoter regions in rice”
Some of the results follow.

Target: T1, OsSMF1 (Oryza sativa, UniProt Q6ZLB0 1-436)
T1 sequence: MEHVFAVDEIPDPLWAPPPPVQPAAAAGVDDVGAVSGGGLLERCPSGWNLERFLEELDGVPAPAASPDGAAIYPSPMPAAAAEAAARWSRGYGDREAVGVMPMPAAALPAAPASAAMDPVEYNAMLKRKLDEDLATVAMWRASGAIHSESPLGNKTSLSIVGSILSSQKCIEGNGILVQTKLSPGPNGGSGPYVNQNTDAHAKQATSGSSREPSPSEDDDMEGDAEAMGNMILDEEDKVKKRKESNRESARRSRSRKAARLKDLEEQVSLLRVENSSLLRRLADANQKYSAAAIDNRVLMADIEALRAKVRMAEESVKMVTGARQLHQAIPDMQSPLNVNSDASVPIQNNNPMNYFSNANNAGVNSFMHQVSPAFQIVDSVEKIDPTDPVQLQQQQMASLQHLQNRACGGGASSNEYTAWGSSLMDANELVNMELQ
Experiment: protein-binding microarray (RPBM); PBS, 2% BSA, 51.3 ng/ul salmon testes DNA, 50 uM zinc acetate, 200 nM TF, 25 C, 1 h; high values mean tight binding
Settings: protein: recombinant; tags: N-terminal polyhistidine and DsRed monomer fusion (pET32a); chain copies: 2; label: CyDye5-dUTP incorporated in the synthesized complementary strand; 3' TTTTT single-stranded linker to array surface; dsDNA, one strand shown
Method in brief: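 Using Ni–NTA, transcription factors fused N-terminally to polyhistidine and DsRed were purified after expression in E. coli BL21-CodonPlus. These were incubated at 200 nM with a blocked, double-stranded custom Agilent array for 1 h at 25 °C in a buffer containing 50 µM zinc acetate, and the array was washed. The binding signal is per-feature fluorescence intensity (arbitrary units) on an Axon 4000B scanner.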

| Sequence | binding signal |
| --- | --- |
| CGCGAAAGGCGTGAAACCAGTGCACGCATCACCCATCTCGCGGAGTCACCTAGTGCAG | 3400 fluorescence intensity (a.u.) |
| TGGGGCCATTGCAAGAGACCCCACATGTCATTGGAATAGACGGAGTCACCTAGTGCAG | 21700 fluorescence intensity (a.u.) |
| ATTCTTTTACCGCGTTGATGAATCGGATTCGTTCCGGTTTCGGAGTCACCTAGTGCAG | 3360 fluorescence intensity (a.u.) |
| CGGTGCGAGGTACTACGTCAAGGCGTACGAGGCCAGGTACCGGAGTCACCTAGTGCAG | 3140 fluorescence intensity (a.u.) |
| AGATTCCTCCCACGATCCTCCTATCGAACCTCCTCTCGCACGGAGTCACCTAGTGCAG | 27100 fluorescence intensity (a.u.) |
| CTCCACACCTGACACCACGCGGGCTGCCTCCATCGTCATCCGGAGTCACCTAGTGCAG | 6460 fluorescence intensity (a.u.) |
| TTTCAGCCCATATATGATCCTCCTTCGGCCCATAATTTTGCGGAGTCACCTAGTGCAG | 3760 fluorescence intensity (a.u.) |
| GAGCCCTCCGCCGCCGCCAGCTCGCCCTTCGCCGAGCCCACGGAGTCACCTAGTGCAG | 3520 fluorescence intensity (a.u.) |
| TAATTTTCTTCCAAAATTCGTGTATTTCTAACTTTATTTACGGAGTCACCTAGTGCAG | 29100 fluorescence intensity (a.u.) |
| TTGAGGCGTGATACCTTGGCCTTCTCTGCCCGCCGATCTGCGGAGTCACCTAGTGCAG | 3590 fluorescence intensity (a.u.) |
| GGTGATGATTGATGAAGCATATGATGTGTCGCTAAATGCTCGGAGTCACCTAGTGCAG | 5520 fluorescence intensity (a.u.) |
| AACATGTGTTCGTATATTCAATGTGACACGCAAGATCAATCGGAGTCACCTAGTGCAG | 6950 fluorescence intensity (a.u.) |
| TCACAAAATCCACCTGCCTCGTCAGACTGGTTTGTTGTCACGGAGTCACCTAGTGCAG | 13700 fluorescence intensity (a.u.) |
| CCCCTCTCTCTCTCTCTCTCTCTCTCTCTCTCTCTCTCTCCGGAGTCACCTAGTGCAG | 20500 fluorescence intensity (a.u.) |
| AGAGGAGCATCTTCTCGCCTGAGATTCCGTCGACGCCATTCGGAGTCACCTAGTGCAG | 3540 fluorescence intensity (a.u.) |
| TAGTCAGTGACGTAATTTGTGCTGATTAAATTTAATTTCTCGGAGTCACCTAGTGCAG | 4940 fluorescence intensity (a.u.) |
| TCTCTTCCACAGTGCATTGACAAATGGCTTCGGATGAGGACGGAGTCACCTAGTGCAG | 3290 fluorescence intensity (a.u.) |
| CGCTGTCATTGCTCGACGTGTCGGAGAACAACCTCACCGGCGGAGTCACCTAGTGCAG | 4060 fluorescence intensity (a.u.) |
| AACATGTTTGTCAGCATTGACGTGAGCTCTAACTTCAACTCGGAGTCACCTAGTGCAG | 4540 fluorescence intensity (a.u.) |
| TGCTTCGCCAGTGAATCGCGTGGATATAAATGGGCCTCTCCGGAGTCACCTAGTGCAG | 3440 fluorescence intensity (a.u.) |
| CCTATTACGACGTCGCCGGCCACCAGCGCGCCTGCCCGCACGGAGTCACCTAGTGCAG | 3210 fluorescence intensity (a.u.) |

| Sequence | binding signal |
| --- | --- |
| GCAGGGATTAAGATTATACCTTTAATGACACCATACCTTTCGGAGTCACCTAGTGCAG | 3360 fluorescence intensity (a.u.) |
| TTGCATCGTCGGCAGCAGCGGCTTACGTGTGCCGAAGCAGCGGAGTCACCTAGTGCAG | 8300 fluorescence intensity (a.u.) |
| TGTCATTGGATCAGTACGCGTAGCTAAGTTATGTTGCAGTCGGAGTCACCTAGTGCAG | 10600 fluorescence intensity (a.u.) |
| AAAAGAGTAAACTTGTCCTTGAAACCGACAAATTTCACACCGGAGTCACCTAGTGCAG | 17000 fluorescence intensity (a.u.) |
| AAACTTAACAACTTGAGAGTTATTCATGATTTATATTCCCCGGAGTCACCTAGTGCAG | 3280 fluorescence intensity (a.u.) |
| TCTATGATGAAGATGATTGTACGTTCACAACTAGTTACCTCGGAGTCACCTAGTGCAG | 3440 fluorescence intensity (a.u.) |
| ATCTGGATCGATCAAGTCATCAAACGCCACAGATTTAGGACGGAGTCACCTAGTGCAG | 3460 fluorescence intensity (a.u.) |
| CATACGTTAAAGTTATCTAGTCAGCATGAAATCGTCGGCACGGAGTCACCTAGTGCAG | 8740 fluorescence intensity (a.u.) |
| AATGGTGCTTAAGCTAACTCACCAACACGTCTCCTTCCCGCGGAGTCACCTAGTGCAG | 3970 fluorescence intensity (a.u.) |
| CACTCCACCAGCGACACTTGACACGCACGCGCCACACGCCCGGAGTCACCTAGTGCAG | 4480 fluorescence intensity (a.u.) |
| TCCAAGCGCTATCTTGGTGGAAGTTACCATGTCATCTTGCCGGAGTCACCTAGTGCAG | 3430 fluorescence intensity (a.u.) |
| GGACCACCCTGCCGCGGACATCACCCATCTCGTCATCTCCCGGAGTCACCTAGTGCAG | 4470 fluorescence intensity (a.u.) |
| ACGGGTGAGAAGTTGTGACACGTCAGAGATGACTCAACACCGGAGTCACCTAGTGCAG | 13900 fluorescence intensity (a.u.) |
| GATATAGTATTTAAAACGTCCATTACACGTGCACGATTACCGGAGTCACCTAGTGCAG | 4230 fluorescence intensity (a.u.) |
| CGGCGGCGTCCACGACGACTCGTCCCTCGCGCACCGCCCGCGGAGTCACCTAGTGCAG | 3660 fluorescence intensity (a.u.) |
| AAATAACTAGATCATATTACTCTTTCATGCAATAAACATCCGGAGTCACCTAGTGCAG | 24800 fluorescence intensity (a.u.) |
| AGGTGGTTACGGTACGGCCTCATCTGACGTCAGATCCGGGCGGAGTCACCTAGTGCAG | 15900 fluorescence intensity (a.u.) |
| TGTACAACATGGGCCTCAAGTACACCACGTCGACGGTGGCCGGAGTCACCTAGTGCAG | 5920 fluorescence intensity (a.u.) |
| GCAAAACCTTCATGCTCATCGATATTACTCTTATCGCCAACGGAGTCACCTAGTGCAG | 25200 fluorescence intensity (a.u.) |
| CGAGCACGCAAATTAATCGTGTGTCATCGGGCAACCACACCGGAGTCACCTAGTGCAG | 7250 fluorescence intensity (a.u.) |
| TGTCCTTCTGCATGCATCCTCCACATCAGGCTAACCACCCCGGAGTCACCTAGTGCAG | 5680 fluorescence intensity (a.u.) |

Reformatted as tab-separated lines: part of the list above
Sequence	binding signal
TCTATGATGAAGATGATTGTACGTTCACAACTAGTTACCTCGGAGTCACCTAGTGCAG	3440 fluorescence intensity (a.u.)
ATCTGGATCGATCAAGTCATCAAACGCCACAGATTTAGGACGGAGTCACCTAGTGCAG	3460 fluorescence intensity (a.u.)
CATACGTTAAAGTTATCTAGTCAGCATGAAATCGTCGGCACGGAGTCACCTAGTGCAG	8740 fluorescence intensity (a.u.)
AATGGTGCTTAAGCTAACTCACCAACACGTCTCCTTCCCGCGGAGTCACCTAGTGCAG	3970 fluorescence intensity (a.u.)
CACTCCACCAGCGACACTTGACACGCACGCGCCACACGCCCGGAGTCACCTAGTGCAG	4480 fluorescence intensity (a.u.)
TCCAAGCGCTATCTTGGTGGAAGTTACCATGTCATCTTGCCGGAGTCACCTAGTGCAG	3430 fluorescence intensity (a.u.)
GGACCACCCTGCCGCGGACATCACCCATCTCGTCATCTCCCGGAGTCACCTAGTGCAG	4470 fluorescence intensity (a.u.)
